Experimental data published in the supplement of paper PMC10849652.
This is one part of the list.

Sequences of proteins named here, by UniProt entry; tags and fusion partners are left off. A change or cut given only in a name is not applied to a line headed by its entry.
UniProt Q9Y4U1: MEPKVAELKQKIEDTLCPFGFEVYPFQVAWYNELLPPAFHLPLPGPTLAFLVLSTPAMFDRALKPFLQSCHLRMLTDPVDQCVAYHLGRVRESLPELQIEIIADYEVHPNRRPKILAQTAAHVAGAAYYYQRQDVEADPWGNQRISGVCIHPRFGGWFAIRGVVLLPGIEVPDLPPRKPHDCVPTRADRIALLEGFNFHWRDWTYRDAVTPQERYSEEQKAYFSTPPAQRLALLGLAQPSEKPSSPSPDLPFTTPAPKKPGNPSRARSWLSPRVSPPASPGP
UniProt Q9NP71: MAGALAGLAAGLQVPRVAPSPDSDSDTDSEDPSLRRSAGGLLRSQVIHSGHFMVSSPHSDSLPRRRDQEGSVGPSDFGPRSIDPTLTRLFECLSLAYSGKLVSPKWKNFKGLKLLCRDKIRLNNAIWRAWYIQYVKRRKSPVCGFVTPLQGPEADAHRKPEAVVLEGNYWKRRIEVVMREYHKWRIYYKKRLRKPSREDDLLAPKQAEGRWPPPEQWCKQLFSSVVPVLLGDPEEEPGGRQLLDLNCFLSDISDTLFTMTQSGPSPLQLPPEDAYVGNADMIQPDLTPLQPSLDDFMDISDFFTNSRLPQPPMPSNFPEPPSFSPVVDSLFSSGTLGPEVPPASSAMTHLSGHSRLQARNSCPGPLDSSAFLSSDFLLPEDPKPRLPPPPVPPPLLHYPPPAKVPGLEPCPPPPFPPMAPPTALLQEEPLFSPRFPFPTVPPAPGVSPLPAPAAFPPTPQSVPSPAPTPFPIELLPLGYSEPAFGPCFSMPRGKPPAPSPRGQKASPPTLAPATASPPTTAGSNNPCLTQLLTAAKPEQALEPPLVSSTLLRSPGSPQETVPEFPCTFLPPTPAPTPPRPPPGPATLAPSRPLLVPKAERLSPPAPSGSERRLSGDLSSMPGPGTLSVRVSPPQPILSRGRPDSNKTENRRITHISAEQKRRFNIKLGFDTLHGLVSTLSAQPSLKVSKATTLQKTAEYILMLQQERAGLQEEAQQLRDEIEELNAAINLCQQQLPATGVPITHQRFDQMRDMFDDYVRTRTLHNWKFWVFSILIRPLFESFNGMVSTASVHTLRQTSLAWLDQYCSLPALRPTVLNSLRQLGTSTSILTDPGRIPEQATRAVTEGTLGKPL
UniProt O96033: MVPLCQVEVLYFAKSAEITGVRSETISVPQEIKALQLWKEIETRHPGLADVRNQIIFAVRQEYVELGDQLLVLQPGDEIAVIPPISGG
UniProt Q6UWV2: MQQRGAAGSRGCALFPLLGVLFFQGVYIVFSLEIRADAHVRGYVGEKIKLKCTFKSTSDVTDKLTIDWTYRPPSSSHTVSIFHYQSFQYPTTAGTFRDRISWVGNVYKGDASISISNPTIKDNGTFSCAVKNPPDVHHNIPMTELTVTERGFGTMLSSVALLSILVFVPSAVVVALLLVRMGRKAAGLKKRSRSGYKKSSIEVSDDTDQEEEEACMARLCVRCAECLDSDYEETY
UniProt Q95460, whole entry, looked up: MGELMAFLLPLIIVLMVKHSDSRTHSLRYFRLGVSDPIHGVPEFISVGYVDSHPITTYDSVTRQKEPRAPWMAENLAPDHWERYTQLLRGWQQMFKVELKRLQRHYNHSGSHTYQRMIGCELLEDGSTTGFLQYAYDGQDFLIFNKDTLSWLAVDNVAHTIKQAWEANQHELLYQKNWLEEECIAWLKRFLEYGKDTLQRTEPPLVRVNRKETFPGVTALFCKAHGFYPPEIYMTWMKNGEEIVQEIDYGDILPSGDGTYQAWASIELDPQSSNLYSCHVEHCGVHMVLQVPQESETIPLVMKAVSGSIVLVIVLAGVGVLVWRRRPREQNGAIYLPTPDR
UniProt Q8NDA8: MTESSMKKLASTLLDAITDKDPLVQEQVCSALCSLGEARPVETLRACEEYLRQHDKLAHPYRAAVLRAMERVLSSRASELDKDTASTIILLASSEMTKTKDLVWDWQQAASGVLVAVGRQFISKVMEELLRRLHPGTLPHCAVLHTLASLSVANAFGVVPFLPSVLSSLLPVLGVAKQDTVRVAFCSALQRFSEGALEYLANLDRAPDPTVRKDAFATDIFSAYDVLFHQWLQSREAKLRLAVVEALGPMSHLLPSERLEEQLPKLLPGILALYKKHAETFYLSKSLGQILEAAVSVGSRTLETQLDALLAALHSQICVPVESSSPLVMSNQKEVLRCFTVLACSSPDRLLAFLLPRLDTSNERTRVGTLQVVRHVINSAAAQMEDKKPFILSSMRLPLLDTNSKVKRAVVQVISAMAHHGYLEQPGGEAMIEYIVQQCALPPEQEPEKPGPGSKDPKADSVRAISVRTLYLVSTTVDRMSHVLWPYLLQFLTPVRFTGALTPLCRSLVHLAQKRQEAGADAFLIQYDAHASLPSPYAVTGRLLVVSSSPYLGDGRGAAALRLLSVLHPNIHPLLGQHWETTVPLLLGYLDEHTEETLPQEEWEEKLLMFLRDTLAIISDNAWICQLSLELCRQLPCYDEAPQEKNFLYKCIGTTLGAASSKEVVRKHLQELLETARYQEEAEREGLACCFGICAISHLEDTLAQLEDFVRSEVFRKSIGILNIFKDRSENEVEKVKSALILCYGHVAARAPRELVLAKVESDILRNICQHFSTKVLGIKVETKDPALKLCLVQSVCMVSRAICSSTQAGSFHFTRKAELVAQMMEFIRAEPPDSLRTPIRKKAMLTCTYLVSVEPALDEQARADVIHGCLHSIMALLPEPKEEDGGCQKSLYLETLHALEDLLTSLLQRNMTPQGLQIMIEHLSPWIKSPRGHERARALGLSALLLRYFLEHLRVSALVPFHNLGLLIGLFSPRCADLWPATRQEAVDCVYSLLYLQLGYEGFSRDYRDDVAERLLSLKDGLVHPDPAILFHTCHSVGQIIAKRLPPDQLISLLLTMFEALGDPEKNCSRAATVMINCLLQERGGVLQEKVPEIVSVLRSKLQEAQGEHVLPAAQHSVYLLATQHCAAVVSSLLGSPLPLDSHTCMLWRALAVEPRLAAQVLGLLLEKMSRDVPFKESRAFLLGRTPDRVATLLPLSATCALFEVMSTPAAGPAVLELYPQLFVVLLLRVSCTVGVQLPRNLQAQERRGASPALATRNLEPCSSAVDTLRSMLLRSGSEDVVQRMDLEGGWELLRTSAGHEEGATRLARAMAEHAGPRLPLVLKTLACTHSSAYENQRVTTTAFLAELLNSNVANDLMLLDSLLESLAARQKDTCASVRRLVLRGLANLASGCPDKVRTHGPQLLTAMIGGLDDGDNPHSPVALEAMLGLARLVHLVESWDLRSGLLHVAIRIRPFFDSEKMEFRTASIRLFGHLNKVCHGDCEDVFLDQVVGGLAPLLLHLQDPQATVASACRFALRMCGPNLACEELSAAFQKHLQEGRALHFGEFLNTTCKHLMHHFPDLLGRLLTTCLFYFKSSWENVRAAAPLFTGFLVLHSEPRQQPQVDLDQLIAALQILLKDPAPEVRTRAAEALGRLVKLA
UniProt O60291: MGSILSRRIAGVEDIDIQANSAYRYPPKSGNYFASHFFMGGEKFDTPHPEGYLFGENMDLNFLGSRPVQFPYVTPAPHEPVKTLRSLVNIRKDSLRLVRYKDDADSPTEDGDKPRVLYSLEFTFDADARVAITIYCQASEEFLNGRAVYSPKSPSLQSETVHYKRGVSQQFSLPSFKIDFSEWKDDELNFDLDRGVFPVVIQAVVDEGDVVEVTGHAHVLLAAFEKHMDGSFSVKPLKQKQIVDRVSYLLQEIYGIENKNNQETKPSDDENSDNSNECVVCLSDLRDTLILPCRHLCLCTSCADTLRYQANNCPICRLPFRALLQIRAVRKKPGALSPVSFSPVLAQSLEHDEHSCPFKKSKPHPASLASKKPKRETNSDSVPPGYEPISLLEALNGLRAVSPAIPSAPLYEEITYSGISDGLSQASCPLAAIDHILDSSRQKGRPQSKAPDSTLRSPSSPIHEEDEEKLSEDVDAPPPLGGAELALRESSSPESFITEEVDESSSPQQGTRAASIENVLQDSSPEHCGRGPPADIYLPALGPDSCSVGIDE
UniProt Q99583: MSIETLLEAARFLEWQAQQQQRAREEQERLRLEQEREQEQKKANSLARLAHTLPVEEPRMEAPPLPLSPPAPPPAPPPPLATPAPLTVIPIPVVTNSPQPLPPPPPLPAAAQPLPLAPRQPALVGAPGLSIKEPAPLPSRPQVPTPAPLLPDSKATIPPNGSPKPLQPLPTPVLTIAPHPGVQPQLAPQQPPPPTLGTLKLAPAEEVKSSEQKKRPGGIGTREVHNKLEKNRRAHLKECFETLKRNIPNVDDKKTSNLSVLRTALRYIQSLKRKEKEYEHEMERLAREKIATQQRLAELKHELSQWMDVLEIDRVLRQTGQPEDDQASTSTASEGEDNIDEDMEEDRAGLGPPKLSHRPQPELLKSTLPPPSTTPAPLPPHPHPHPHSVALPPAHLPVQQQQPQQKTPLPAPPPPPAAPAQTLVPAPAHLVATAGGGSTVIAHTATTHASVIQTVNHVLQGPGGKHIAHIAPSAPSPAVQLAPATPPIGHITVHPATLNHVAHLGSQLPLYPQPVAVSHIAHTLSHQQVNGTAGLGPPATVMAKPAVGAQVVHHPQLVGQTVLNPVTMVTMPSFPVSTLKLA
UniProt Q5JXC2: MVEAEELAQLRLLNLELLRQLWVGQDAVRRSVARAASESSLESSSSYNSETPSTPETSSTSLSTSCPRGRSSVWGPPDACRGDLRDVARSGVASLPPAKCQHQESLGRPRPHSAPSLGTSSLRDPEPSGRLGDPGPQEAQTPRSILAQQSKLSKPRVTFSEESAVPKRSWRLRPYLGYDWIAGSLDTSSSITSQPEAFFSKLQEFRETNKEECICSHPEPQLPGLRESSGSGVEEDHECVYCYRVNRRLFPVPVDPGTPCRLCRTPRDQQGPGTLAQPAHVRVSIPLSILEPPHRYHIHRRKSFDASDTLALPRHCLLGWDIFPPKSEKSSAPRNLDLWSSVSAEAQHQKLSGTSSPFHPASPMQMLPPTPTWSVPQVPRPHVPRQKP
UniProt Q7Z6M3: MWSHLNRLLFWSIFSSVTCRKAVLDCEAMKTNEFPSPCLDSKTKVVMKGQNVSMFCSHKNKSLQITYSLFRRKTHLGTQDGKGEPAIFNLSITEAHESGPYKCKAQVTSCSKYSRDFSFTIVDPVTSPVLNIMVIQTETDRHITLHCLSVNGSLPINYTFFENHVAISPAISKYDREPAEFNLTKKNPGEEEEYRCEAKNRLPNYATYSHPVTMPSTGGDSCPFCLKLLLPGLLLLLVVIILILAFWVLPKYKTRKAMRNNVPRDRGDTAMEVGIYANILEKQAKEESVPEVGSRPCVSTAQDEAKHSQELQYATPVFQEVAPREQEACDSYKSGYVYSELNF
UniProt Q8N3R9: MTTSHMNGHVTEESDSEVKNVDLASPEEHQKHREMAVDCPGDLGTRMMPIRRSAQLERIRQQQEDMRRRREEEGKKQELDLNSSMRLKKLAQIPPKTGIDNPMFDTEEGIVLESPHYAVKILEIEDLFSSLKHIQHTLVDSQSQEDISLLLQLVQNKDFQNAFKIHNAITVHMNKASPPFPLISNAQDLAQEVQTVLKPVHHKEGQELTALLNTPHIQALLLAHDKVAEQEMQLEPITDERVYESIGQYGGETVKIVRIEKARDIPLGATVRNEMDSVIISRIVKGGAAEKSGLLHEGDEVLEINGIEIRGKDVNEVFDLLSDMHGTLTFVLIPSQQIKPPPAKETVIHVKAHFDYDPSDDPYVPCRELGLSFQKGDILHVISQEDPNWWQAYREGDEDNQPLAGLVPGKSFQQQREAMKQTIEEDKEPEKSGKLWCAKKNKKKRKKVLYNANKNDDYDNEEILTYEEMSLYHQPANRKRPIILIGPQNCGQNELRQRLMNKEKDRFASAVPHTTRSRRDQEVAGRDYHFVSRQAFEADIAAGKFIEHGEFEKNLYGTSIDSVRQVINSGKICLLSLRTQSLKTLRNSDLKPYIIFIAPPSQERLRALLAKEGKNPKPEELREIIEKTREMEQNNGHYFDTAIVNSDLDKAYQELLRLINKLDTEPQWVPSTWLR
UniProt Q9NPJ1: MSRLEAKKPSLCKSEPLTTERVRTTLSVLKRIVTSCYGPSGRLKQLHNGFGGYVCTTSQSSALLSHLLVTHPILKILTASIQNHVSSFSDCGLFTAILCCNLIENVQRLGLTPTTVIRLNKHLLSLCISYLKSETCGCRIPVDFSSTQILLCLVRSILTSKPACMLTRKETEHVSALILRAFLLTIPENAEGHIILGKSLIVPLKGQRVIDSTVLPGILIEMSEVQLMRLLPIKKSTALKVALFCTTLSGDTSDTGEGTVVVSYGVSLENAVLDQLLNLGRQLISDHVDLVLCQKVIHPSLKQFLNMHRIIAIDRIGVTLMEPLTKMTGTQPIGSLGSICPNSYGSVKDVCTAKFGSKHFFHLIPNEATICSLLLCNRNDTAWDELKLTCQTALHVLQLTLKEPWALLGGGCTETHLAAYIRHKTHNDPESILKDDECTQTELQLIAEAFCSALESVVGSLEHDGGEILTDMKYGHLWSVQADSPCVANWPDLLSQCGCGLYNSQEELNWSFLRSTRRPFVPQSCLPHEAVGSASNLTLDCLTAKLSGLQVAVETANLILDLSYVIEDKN

How the values were obtained:
Assay in all cases: log2 fold change, soluble protein after heating vs DMSO (PISA); higher = thermal stabilisation; K562 lysate, 10 uM; active = over 0.2 and 3.5 SD of the protein, either way, in both replicates (recomputed)
ibrutinib = compound: C=CC(=O)N1CCC[C@@H](n2nc(-c3ccc(Oc4ccccc4)cc3)c3c(N)ncnc32)C1 [ibrutinib]
How it was run: (§1)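 A 30 min treatment with 10 μM compound was applied to crude K562 extract at 1 mg/mL protein in PBS pH 7.4 with 1 mM MgCl2. Heating for 3 min spanned 48°C-58°C, after which aliquots were pooled, adjusted to 0.5% NP-40 at 4°C and spun at 21,000xg for 90 min. TMTpro 16plex LC-MS/MS of the supernatant, with channel sums equalised, gave values recorded as log-two fold change in thermal stability against solvent controls, from duplicates.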

ralimetinib = compound: CC(C)(C)Cn1c(N)nc2ccc(-c3[nH]c(C(C)(C)C)nc3-c3ccc(F)cc3)nc21 [ralimetinib]
How it was run: as §1

[1] = compound: CC(C)(O)CC(=O)NCCn1ccc2ncnc(Nc3ccc(Oc4cccc(C(F)(F)F)c4)c(Cl)c3)c21
How it was run: as §1

[2] = compound: CC1=C(C(CC(=O)N1)C2=CC=C(C=C2)C(F)(F)F)C(=O)NC3=C(C=C4C(=C3)C=NN4)F
How it was run: as §1

[3] = compound: CC1=C(C2=C(C=C1)C(=O)C3=CC=CC=C3N2CCCN)C
How it was run: as §1

[4] = compound: CC1=C(C=C(C=C1)NC(=O)C2=CC(=CC=C2)N(C)C)NC(=O)C3=CC=C(C=C3)O
How it was run: as §1

vemurafenib = compound: CCCS(=O)(=O)Nc1ccc(F)c(C(=O)c2c[nH]c3ncc(-c4ccc(Cl)cc4)cc23)c1F [vemurafenib]
How it was run: as §1

barasertib = compound: CCN(CCCOc1ccc2c(Nc3cc(CC(=O)Nc4cccc(F)c4)[nH]n3)ncnc2c1)CCOP(=O)(O)O [barasertib]
How it was run: as §1

[5] = compound: CCn1c(C(=O)N(C2CC2)C2CC2)cc2c3c(ncn3C)c(Nc3cc(C)n(C)n3)nc21
How it was run: as §1

[6] = compound: CCn1cc(-c2ccnc3[nH]c(-c4cccc(CN(C)C)c4)cc23)c(-c2ccc(NC(=O)N(C)C)cc2)n1
How it was run: as §1

[7] = compound: CN1CCC(CNc2ccc3ncc(-c4cccc(OC(F)(F)F)c4)n3n2)CC1
How it was run: as §1

saracatinib = compound: CN1CCN(CCOc2cc(OC3CCOCC3)c3c(Nc4c(Cl)ccc5c4OCO5)ncnc3c2)CC1 [saracatinib]
How it was run: as §1

[8] = compound: CC(C)C1=C2N=C(C=C(N2N=C1)NCC3=CC=CC=C3)NCCCCCCN
How it was run: as §1

[9] = compound: CC1=C(C=C(C=C1)NC(=O)C2=CC(=CC=C2)C(C)(C)C#N)NC3=CC4=C(C=C3)N=CN(C4=O)C
How it was run: as §1

sotrastaurin = compound: CN1CCN(c2nc(C3=C(c4c[nH]c5ccccc45)C(=O)NC3=O)c3ccccc3n2)CC1 [sotrastaurin]
How it was run: as §1

[10] = compound: CC(=O)c1cnc2ccc(-c3cc(Cl)c(O)c(Cl)c3)nc2c1N[C@H]1CC[C@H](CN(C)C)CC1
How it was run: as §1

[11] = compound: CC1=CC=C(C=C1)SC2=C3C=C(SC3=CN=C2)C(=O)N
How it was run: as §1

[12] = compound: CCCS(=O)(=O)Nc1ccc(F)c(C(=O)c2c[nH]c3ncc(Cl)cc23)c1F
How it was run: as §1

volasertib = compound: CC[C@@H]1C(=O)N(C)c2cnc(Nc3ccc(C(=O)N[C@H]4CC[C@H](N5CCN(CC6CC6)CC5)CC4)cc3OC)nc2N1C(C)C [volasertib]
How it was run: as §1

[13] = compound: CC[C@@H]1C(=O)N(C)c2cnc(Nc3ccc(C(=O)NC4CCN(C)CC4)cc3OC)nc2N1C1CCCC1
How it was run: as §1

Measured: log2 fold change

MMACHC (UniProt Q9Y4U1)
inactive: ibrutinib 0.025 | ralimetinib -0.038 | [1] 0.021 | [2] 0.103 | [3] -0.188 | [4] -0.149 | vemurafenib -0.027 | barasertib 0.192 | [5] 0.033 | [6] -0.14 | [7] 0.201 | saracatinib 0.215

MLF1 isoform 3 (UniProt P58340)
inactive: vemurafenib -0.09 | [6] -0.079 | [7] -0.051

MLXIPL (UniProt Q9NP71)
inactive: ralimetinib 0.137 | [1] 0.075 | [8] 0.097 | [9] -0.06 | [4] -0.097 | [5] 0.113 | [6] -0.144 | [7] 0.04 | sotrastaurin -0.024

Reprinted from the entries so far (2 entries):
MMACHC (UniProt Q9Y4U1)
inactive: ibrutinib 0.025 | ralimetinib -0.038 | [1] 0.021 | [2] 0.103 | [3] -0.188 | [4] -0.149 | vemurafenib -0.027 | barasertib 0.192 | [5] 0.033 | [6] -0.14 | [7] 0.201 | saracatinib 0.215

MLF1 isoform 3 (UniProt P58340)
inactive: vemurafenib -0.09 | [6] -0.079 | [7] -0.051

(cont.)

MOCS2 (UniProt O96033)
inactive: [10] 0.065 | ralimetinib -0.193 | [1] 0.126 | [3] -0.032 | [9] -0.072 | [4] 0.172 | [11] -0.031 | [12] 0.107 | volasertib 0.031 | [5] 0.085 | saracatinib 0.023 | sotrastaurin -0.017

MOCS3 (UniProt O95396)
inactive: ibrutinib 0.045 | ralimetinib -0.016 | [1] -0.014 | [8] -0.018 | [2] 0.056 | [3] -0.04 | [9] 0.079 | [4] 0.001 | vemurafenib -0.12 | barasertib -0.018 | [13] -0.038 | [5] 0.037 | [6] -0.273 | [7] 0.264 | saracatinib 0.06 | sotrastaurin 0.11

MKNK2 (UniProt Q9HBH9)
inactive: ralimetinib 0.027 | [1] -0.166 | [8] 0.017 | [2] 0.087 | [3] 0.109 | [4] 0.092 | vemurafenib 0.239 | [13] 0 | [5] -0.069 | saracatinib 0.11

MPZL3 (UniProt Q6UWV2)
inactive: ralimetinib -0.105 | [1] 0.057 | [4] 0.022 | [5] 0.051

MIPOL1 (UniProt Q8TD10)
inactive: ibrutinib 0.099 | [10] 0.175 | ralimetinib -0.032 | [1] -0.022 | [8] -0.067 | [3] -0.068 | [9] 0.046 | [4] 0.05 | [11] -0.064 | [12] -0.052 | barasertib 0.035 | [13] 0.319 | volasertib -0.038 | [5] 0.073 | [6] 0.042 | [7] -0.117 | saracatinib -0.096 | sotrastaurin 0.028

MR1 (UniProt Q95460)
inactive: ibrutinib -0.026 | [8] -0.059 | [3] -0.252 | vemurafenib 0.174 | barasertib -0.027 | [13] 0.03 | saracatinib -0.099

MROH1 (UniProt Q8NDA8)
inactive: ibrutinib -0.025 | ralimetinib -0.064 | [1] -0.13 | [3] -0.019 | [9] 0.162 | [4] 0 | barasertib 0.048 | [13] 0.056 | [5] 0.015 | [6] 0.065 | [7] 0.023 | saracatinib 0.053 | sotrastaurin -0.025

MGRN1 isoform 2 (UniProt O60291)
inactive: ibrutinib -0.111 | [10] 0.093 | [8] 0 | [3] -0.127 | [9] -0.066 | [11] 0.049 | vemurafenib 0.11 | [12] -0.032 | barasertib 0.026 | [13] 0.075 | volasertib -0.054 | [6] 0.026 | [7] -0.043 | saracatinib -0.006 | sotrastaurin -0.133

MNT (UniProt Q99583)
inactive: [10] -0.05 | ralimetinib 0.038 | [1] -0.035 | [8] 0.026 | [3] -0.215 | [9] 0.024 | [4] 0.048 | [11] -0.017 | vemurafenib -0.014 | [12] 0.006 | [13] 0.155 | volasertib -0.012 | [5] -0.033 | [6] 0.012 | [7] 0.044 | saracatinib -0.127 | sotrastaurin -0.034

MIIP (UniProt Q5JXC2)
inactive: ibrutinib 0.09 | ralimetinib -0.083 | [1] 0.052 | [8] 0.037 | [9] 0.013 | [4] 0.061 | barasertib 0.122 | [5] 0.041 | sotrastaurin 0.078

MILR1 (UniProt Q7Z6M3)
inactive: ralimetinib -0.083 | [1] -0.059 | [8] 0.212 | [9] 0.023 | [4] 0.065 | vemurafenib -0.024 | [13] 0.193 | [5] -0.044 | sotrastaurin 0.017

MRPL18 (UniProt Q9H0U6)
inactive: [10] -0.066 | ralimetinib -0.044 | [1] -0.064 | [2] 0.127 | [3] -0.037 | [9] -0.013 | [4] 0.065 | [11] -0.029 | vemurafenib -0.036 | [12] 0 | [13] -0.06 | volasertib -0.084 | [5] 0.026 | [6] 0.084 | [7] -0.02 | saracatinib 0.025 | sotrastaurin 0.068

MRE11 (UniProt F8W7U8)
inactive: [10] 0.007 | [11] -0.074 | [12] 0.109 | volasertib 0.097

MPP5 (UniProt Q8N3R9)
inactive: ibrutinib 0 | ralimetinib 0.019 | [1] -0.063 | [8] -0.079 | [2] -0.082 | [3] -0.067 | [9] 0.017 | [4] 0.014 | vemurafenib -0.029 | barasertib -0.058 | [13] -0.011 | [5] 0.042 | [6] -0.084 | [7] -0.038 | saracatinib -0.04 | sotrastaurin -0.006

MKKS (UniProt Q9NPJ1)
inactive: ibrutinib 0.038 | [3] -0.008 | vemurafenib -0.174 | barasertib -0.077 | [13] 0.175 | [6] -0.034 | [7] 0.195 | saracatinib -0.059
